Assay results taken from patent US20200216863A1, “Use of renewable deep eutectic solvents in a one-pot process for a biomass” (National Technology & Engineering Solutions of Sandia, LLC, priority 2019, published 2020).

Assay: Degradation compounds formed during DES pretreatment (HPLC, LC-MSD)
Conditions: corn stover pretreatment

Structure (SMILES) | concentration formed during DES pretreatment [mg/L]
O=Cc1ccc(CO)o1 [HMF, hydroxymethylfurfural] | 14.9
O=Cc1ccco1 [furfural] | 36.4
